Data reported in patent US8633207B2, “Quinazoline compounds and methods of use thereof” (Ambit Biosciences Corporation, priority 2010, dated 2014).

These compounds were tested on panel of distinct kinases, typically 359 or 386 kinases (assay: Kinase selectivity score S(10) from competition binding panel). Settings: number of kinases with inhibition of 90% or greater divided by number of distinct kinases tested.
Experimental: Competition binding assays used herein were developed, validated and performed as described in Fabian et al., Nature Biotechnology 2005, 23, 329-336. Kinases were produced as fusions to T7 phage (See, Fabian et al. or WO04/015142) or alternatively, the kinases were expressed in HEK-293 cells and subsequently tagged with DNA for PCR detection (See, WO08/005,310). For the binding assays, streptavidin-coated magnetic beads were treated with biotinylated affinity ligands for 30 min at rt to generate affinity resins. The liganded beads were blocked with excess biotin and washed with blocking buffer (SeaBlock (Pierce), 1% BSA, 0.05% Tween 20, 1 mM DTT) to remove unbound ligand and to reduce non-specific binding. Binding reactions were assembled by combining kinase, liganded affinity beads, and test compounds in 1× binding buffer (20% SeaBlock, 0.17×PBS, 0.05% Tween 20, 6 mM DTT). Test compounds were prepared as 100× stocks in DMSO and rapidly diluted into the aqueous environment. DMSO was added to control assays lacking a test compound. Primary screen interactions were performed in polypropylene 384-well plates in a final volume of 34 μL, while Kd determinations were performed in polystyrene 96-well plates in a final volume of 135 μL. The assay plates were incubated at room temperature with shaking for 1 hour, long enough for binding reactions to reach equilibrium, and the affinity beads were washed extensively with wash buffer (1×PBS, 0.05% Tween 20) to remove unbound protein. The beads were then resuspended in elution buffer (1×PBS, 0.05% Tween 20, 2 μM non-biotinylated affinity ligand) and incubated at room temperature with shaking for 30 min. The kinase concentration in the eluates was measured by quantitative PCR. Each kinase was tested individually against each compound. Kds were determined using eleven serial threefold dilutions. A selectivity score, which is a quantitative measure of selectivity of a compound against a panel of enzymes, may be calculated for a compound by dividing the number of enzymes for which a compound meets a set criteria, (for example, a binding constant of 100 nM or less), by the total number of enzymes tested.

SMILES	S-Score: S(10) at 10 μM
Cc1cc(Nc2nc(C(F)(F)c3ccc(F)cn3)nc3c(C(=O)NC4COC4)cccc23)n[nH]1 [Example 45, 2-(difluoro(5-fluoropyridin-2-yl)methyl)-4-((5-methyl-1H-pyrazol-3-yl)amino)-N-(oxetan-3-yl)quinazoline-8-carboxamide]	B (0.3 < B ≦ 0.4)
Fc1ccc(C(F)(F)c2nc(Nc3cc[nH]n3)c3ccccc3n2)nc1 [Example 4, 2-(difluoro(5-fluoropyridin-2-yl)methyl)-N-(1H-pyrazol-3-yl)quinazolin-4-amine]	A (A ≦ 0.3)
Cc1cc(Nc2nc(C(F)(F)c3ncc(F)cn3)nc3c(Cl)cccc23)n[nH]1 [Example 40, 8-chloro-2-(difluoro(5-fluoropyrimidin-2-yl)methyl)-N-(5-methyl-1H-pyrazol-3-yl)quinazolin-4-amine]	B (0.3 < B ≦ 0.4)
Cc1cc(Nc2nc(C(F)(F)c3ccc(F)cn3)nc3cc(C(N)=O)ccc23)n[nH]1 [Example 41, 2-(difluoro(5-fluoropyridin-2-yl)methyl)-4-((5-methyl-1H-pyrazol-3-yl)amino)quinazoline-7-carboxamide]	D (D > 0.5)
Cc1cc(Nc2nc(C(F)(F)c3ccc(F)cn3)nc3c(O)cccc23)n[nH]1 [Example 46, 2-(difluoro(5-fluoropyridin-2-yl)methyl)-4-((5-methyl-1H-pyrazol-3-yl)amino)quinazolin-8-ol]	D (D > 0.5)
Cc1cc(Nc2nc(C(F)(F)c3ccc(F)cn3)nc3c(OC(F)(F)F)cccc23)n[nH]1 [Example 34, 2-(difluoro(5-fluoropyridin-2-yl)methyl)-N-(5-methyl-1H-pyrazol-3-yl)-8-(trifluoromethoxy)quinazolin-4-amine]	A (A ≦ 0.3)
Cc1cc(Nc2nc(C(F)(F)c3ccc(F)cn3)nc3ccccc23)n[nH]1 [Example 2, 2-(difluoro(5-fluoropyridin-2-yl)methyl)-N-(5-methyl-1H-pyrazol-3-yl)quinazolin-4-amine]	C (0.4 < C ≦ 0.5)
Cc1cc(Nc2nc(C(F)(F)c3ccc(F)cn3)nc3cc(F)ccc23)n[nH]1 [Example 15, 2-(difluoro(5-fluoropyridin-2-yl)methyl)-7-fluoro-N-(5-methyl-1H-pyrazol-3-yl)quinazolin-4-amine]	C (0.4 < C ≦ 0.5)
Cc1ccc2c(Nc3cc(C)[nH]n3)nc(C(F)(F)c3ccc(F)cn3)nc2c1 [Example 14, 2-(difluoro(5-fluoropyridin-2-yl)methyl)-7-methyl-N-(5-methyl-1H-pyrazol-3-yl)quinazolin-4-amine]	D (D > 0.5)
Cc1cc(Nc2nc(C(=O)c3ccc(F)cn3)nc3ccccc23)n[nH]1 [Example 1, (5-fluoropyridin-2-yl)(4-(5-methyl-1H-pyrazol-3-ylamino)quinazolin-2-yl)methanone]	A (A ≦ 0.3)
Cc1cc(Nc2nc(C(F)(F)c3ccc(F)cn3)nc3c([N+](=O)[O-])cccc23)n[nH]1 [Example 49, 2-(difluoro(5-fluoropyridin-2-yl)methyl)-N-(5-methyl-1H-pyrazol-3-yl)-8-nitroquinazolin-4-amine]	A (A ≦ 0.3)
Cc1cc(Nc2nc(C(F)(F)c3ccc(F)cn3)nc3c(N4CCOCC4=O)cccc23)n[nH]1 [Example 42, 4-(2-(difluoro(5-fluoropyridin-2-yl)methyl)-4-((5-methyl-1H-pyrazol-3-yl)amino)quinazolin-8-yl)morpholin-3-one]	B (0.3 < B ≦ 0.4)
Cc1cc(Nc2nc(C(F)(F)c3ccc(F)cn3)nc3c(C#N)cccc23)n[nH]1 [Example 35, 2-(difluoro(5-fluoropyridin-2-yl)methyl)-4-((5-methyl-1H-pyrazol-3-yl)amino)quinazoline-8-carbonitrile]	A (A ≦ 0.3)
Cc1cc(Nc2nc(C(F)(F)c3ccc(F)cn3)nc3c(C(=O)O)cccc23)n[nH]1 [Example 53, 2-(difluoro(5-fluoropyridin-2-yl)methyl)-4-((5-methyl-1H-pyrazol-3-yl)amino)quinazoline-8-carboxylic acid]	A (A ≦ 0.3)
COc1cc(Nc2nc(C(F)(F)c3ccc(F)cn3)nc3ccccc23)n[nH]1 [Example 5, 2-(difluoro(5-fluoropyridin-2-yl)methyl)-N-(5-methoxy-1H-pyrazol-3-yl)quinazolin-4-amine]	C (0.4 < C ≦ 0.5)
CCc1cccc2c(Nc3cc(C)[nH]n3)nc(C(F)(F)c3ccc(F)cn3)nc12 [Example 36, 2-(difluoro(5-fluoropyridin-2-yl)methyl)-8-ethyl-N-(5-methyl-1H-pyrazol-3-yl)quinazolin-4-amine]	A (A ≦ 0.3)
Cc1cc(Nc2nc(C(F)(F)c3ccc(F)cn3)nc3cc(C#N)ccc23)n[nH]1 [Example 8, 2-(difluoro(5-fluoropyridin-2-yl)methyl)-4-(5-methyl-1H-pyrazol-3-ylamino)quinazoline-7-carbonitrile]	A (A ≦ 0.3)
Cc1cc(Nc2nc(C(F)(F)c3ccc(F)cn3)nc3c(S(C)(=O)=O)cccc23)n[nH]1 [Example 37, 2-(difluoro(5-fluoropyridin-2-yl)methyl)-N-(5-methyl-1H-pyrazol-3-yl)-8-(methylsulfonyl)quinazolin-4-amine]	A (A ≦ 0.3)
Cc1cc(Nc2nc(C(F)(F)c3ccc(F)cn3)nc3c(F)cccc23)n[nH]1 [Example 12, 2-(difluoro(5-fluoropyridin-2-yl)methyl)-8-fluoro-N-(3-methyl-1H-pyrazol-5-yl)quinazolin-4-amine]	C (0.4 < C ≦ 0.5)
Cc1cc(Nc2nc(C(F)(F)c3ccc(F)cn3)nc3c(C4CC4)cccc23)n[nH]1 [Example 51, 8-cyclopropyl-2-(difluoro(5-fluoropyridin-2-yl)methyl)-N-(5-methyl-1H-pyrazol-3-yl)quinazolin-4-amine]	A (A ≦ 0.3)
Cc1cc(Nc2nc(C(F)(F)c3ccc(F)cn3)nc3cc(S(C)(=O)=O)ccc23)n[nH]1 [Example 38, 2-(difluoro(5-fluoropyridin-2-yl)methyl)-N-(5-methyl-1H-pyrazol-3-yl)-7-(methylsulfonyl)quinazolin-4-amine]	D (D > 0.5)
Cc1cc(Nc2nc(C(F)(F)c3ccc(F)cn3)nc3cc(C4CC4)ccc23)n[nH]1 [Example 9, 7-cyclopropyl-2-(difluoro(5-fluoropyridin-2-yl)methyl)-N-(5-methyl-1H-pyrazol-3-yl)quinazolin-4-amine]	C (0.4 < C ≦ 0.5)
Cc1cc(Nc2nc(C(F)(F)c3ccc(F)cn3)nc3c(C)cccc23)n[nH]1 [Example 10, 2-(Difluoro(5-fluoropyridin-2-yl)methyl)-8-methyl-N-(5-methyl-1H-pyrazol-3-yl)quinazolin-4-amine]	C (0.4 < C ≦ 0.5)
COc1cccc2c(Nc3cc(C)[nH]n3)nc(C(F)(F)c3ccc(F)cn3)nc12 [Example 43, 2-(difluoro(5-fluoropyridin-2-yl)methyl)-8-methoxy-N-(5-methyl-1H-pyrazol-3-yl)quinazolin-4-amine]	C (0.4 < C ≦ 0.5)
COc1ccc2c(Nc3cc(C)[nH]n3)nc(C(F)(F)c3ccc(F)cn3)nc2c1 [Example 6, 2-(difluoro(5-fluoropyridin-2-yl)methyl)-7-methoxy-N-(5-methyl-1H-pyrazol-3-yl)quinazolin-4-amine]	C (0.4 < C ≦ 0.5)
Cc1cc(Nc2nc(C(F)(F)c3ccc(F)cn3)nc3cc(Br)ccc23)n[nH]1 [Example 7, 7-bromo-2-(difluoro(5-fluoropyridin-2-yl)methyl)-N-(5-methyl-1H-pyrazol-3-yl)quinazolin-4-amine]	B (0.3 < B ≦ 0.4)
Cc1cc(Nc2nc(C(F)(F)c3ccc(F)cn3)nc3c(NC=O)cccc23)n[nH]1 [Example 44, N-(2-(difluoro(5-fluoropyridin-2-yl)methyl)-4-((5-methyl-1H-pyrazol-3-yl)amino)quinazolin-8-yl)formamide]	D (D > 0.5)
Cc1cc(Nc2nc(C(F)(F)c3ccc(F)cn3)nc3cc(Cl)ccc23)n[nH]1 [Example 16, 7-chloro-2-(difluoro(5-fluoropyridin-2-yl)methyl)-N-(5-methyl-1H-pyrazol-3-yl)quinazolin-4-amine]	B (0.3 < B ≦ 0.4)
CC(=O)Nc1cccc2c(Nc3cc(C)[nH]n3)nc(C(F)(F)c3ccc(F)cn3)nc12 [Example 48, N-(2-(difluoro(5-fluoropyridin-2-yl)methyl)-4-((5-methyl-1H-pyrazol-3-yl)amino)quinazolin-8-yl)acetamide]	C (0.4 < C ≦ 0.5)
Cc1cc(Nc2nc(C(F)(F)c3ccc(F)cn3)nc3c(Br)cccc23)n[nH]1 [Example 11, 8-bromo-2-(difluoro(5-fluoropyridin-2-yl)methyl)-N-(5-methyl-1H-pyrazol-3-yl)quinazolin-4-amine]	A (A ≦ 0.3)
